Measurements as given in PMC3796546.
No constants are given. Whether binding was seen depends on the method and setting. In cells and extracts the contact can be indirect. Some entries that bind do so weakly or less than the wild type.

Protein sequences, listed by entry. Tags and fused reporters are not part of them.
UniProt P25694: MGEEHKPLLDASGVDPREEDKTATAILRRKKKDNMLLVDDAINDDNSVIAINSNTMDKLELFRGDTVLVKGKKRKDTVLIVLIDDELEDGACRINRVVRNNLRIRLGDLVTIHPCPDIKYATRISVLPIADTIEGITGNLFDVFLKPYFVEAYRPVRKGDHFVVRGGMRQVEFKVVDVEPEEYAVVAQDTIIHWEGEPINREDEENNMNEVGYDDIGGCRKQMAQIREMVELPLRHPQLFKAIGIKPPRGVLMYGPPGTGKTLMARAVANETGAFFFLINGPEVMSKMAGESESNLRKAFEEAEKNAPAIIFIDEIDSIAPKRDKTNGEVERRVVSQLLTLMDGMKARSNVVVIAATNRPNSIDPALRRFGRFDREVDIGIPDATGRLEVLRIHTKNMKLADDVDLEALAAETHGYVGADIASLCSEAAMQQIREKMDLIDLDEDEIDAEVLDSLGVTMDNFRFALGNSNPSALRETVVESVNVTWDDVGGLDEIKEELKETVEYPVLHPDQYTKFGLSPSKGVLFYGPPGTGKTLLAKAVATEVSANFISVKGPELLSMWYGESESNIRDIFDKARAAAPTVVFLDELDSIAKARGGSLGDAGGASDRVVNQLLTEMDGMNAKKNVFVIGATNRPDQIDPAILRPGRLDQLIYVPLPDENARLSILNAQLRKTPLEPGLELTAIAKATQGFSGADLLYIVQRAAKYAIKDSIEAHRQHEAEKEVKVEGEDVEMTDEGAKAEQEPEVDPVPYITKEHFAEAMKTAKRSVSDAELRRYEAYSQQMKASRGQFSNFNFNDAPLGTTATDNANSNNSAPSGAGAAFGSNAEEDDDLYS

Experiments:
Test in all cases: co-IP; yeast crude extract in RNP buffer (0.1 M HEPES pH 7.4, 100 mM NaCl, 0.1% NP-40) on anti-HA agarose beads, 4°C, 90 minutes; HA-Irc20 derivatives precipitated, Cdc48–3xMyc detected by anti-MYC western blot
[1] = target: T1, 3xHA-Irc20 (a.a. 1034–1238) (S. cerevisiae) (UniProt Q06554)
T1 sequence: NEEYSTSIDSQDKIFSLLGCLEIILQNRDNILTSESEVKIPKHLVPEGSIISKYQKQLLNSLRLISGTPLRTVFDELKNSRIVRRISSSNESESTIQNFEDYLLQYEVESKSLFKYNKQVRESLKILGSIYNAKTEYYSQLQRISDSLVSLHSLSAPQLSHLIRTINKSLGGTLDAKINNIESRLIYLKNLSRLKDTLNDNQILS

[2] = target: 3xHA-Irc20-C1239A RING mutant (S. cerevisiae) (UniProt Q06554)
[3] = target: 3xHA-Irc20-D534A, E535A ATPase mutant (S. cerevisiae) (UniProt Q06554)
[4] = target: T2, 3xHA-irc20 (Δ1034–1238) (S. cerevisiae) (UniProt Q06554)
T2 sequence: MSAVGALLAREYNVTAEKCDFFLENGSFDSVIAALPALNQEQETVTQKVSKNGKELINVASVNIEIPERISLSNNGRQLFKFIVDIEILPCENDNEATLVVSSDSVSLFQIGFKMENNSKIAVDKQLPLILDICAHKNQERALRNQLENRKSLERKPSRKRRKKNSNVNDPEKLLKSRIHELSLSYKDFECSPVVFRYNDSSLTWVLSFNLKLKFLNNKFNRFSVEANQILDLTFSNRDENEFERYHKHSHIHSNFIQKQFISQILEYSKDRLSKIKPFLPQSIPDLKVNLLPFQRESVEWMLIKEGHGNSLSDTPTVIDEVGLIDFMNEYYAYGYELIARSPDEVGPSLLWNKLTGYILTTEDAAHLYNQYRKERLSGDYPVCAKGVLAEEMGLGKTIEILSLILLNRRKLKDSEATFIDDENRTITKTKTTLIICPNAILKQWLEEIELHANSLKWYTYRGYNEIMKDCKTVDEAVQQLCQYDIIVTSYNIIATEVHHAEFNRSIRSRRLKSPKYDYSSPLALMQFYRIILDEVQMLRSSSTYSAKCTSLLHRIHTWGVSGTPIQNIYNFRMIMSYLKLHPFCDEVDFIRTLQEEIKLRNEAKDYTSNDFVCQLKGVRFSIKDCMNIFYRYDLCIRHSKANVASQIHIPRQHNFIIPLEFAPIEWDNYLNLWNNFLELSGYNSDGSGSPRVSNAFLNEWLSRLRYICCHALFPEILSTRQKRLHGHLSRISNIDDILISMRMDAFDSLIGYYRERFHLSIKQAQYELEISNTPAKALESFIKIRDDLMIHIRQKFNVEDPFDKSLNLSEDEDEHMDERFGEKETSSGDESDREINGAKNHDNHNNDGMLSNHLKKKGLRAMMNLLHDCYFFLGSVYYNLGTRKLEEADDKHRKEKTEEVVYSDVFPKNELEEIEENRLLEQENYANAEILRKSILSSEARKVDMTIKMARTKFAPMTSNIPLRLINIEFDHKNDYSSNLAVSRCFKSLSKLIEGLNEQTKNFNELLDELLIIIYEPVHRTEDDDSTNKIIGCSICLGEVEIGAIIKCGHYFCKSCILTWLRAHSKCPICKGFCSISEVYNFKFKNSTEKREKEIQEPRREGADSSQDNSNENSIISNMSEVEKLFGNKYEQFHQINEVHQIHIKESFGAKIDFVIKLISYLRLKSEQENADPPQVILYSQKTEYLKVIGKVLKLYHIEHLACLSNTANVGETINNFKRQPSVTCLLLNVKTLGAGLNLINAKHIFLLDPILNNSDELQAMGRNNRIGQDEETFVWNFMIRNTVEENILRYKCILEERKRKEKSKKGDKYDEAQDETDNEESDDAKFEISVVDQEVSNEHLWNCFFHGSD

- binding [1]: binds
- binding [2]: binds
- binding [3]: binds
- binding [4]: binds
Substance: Cdc48–3xMyc (from UniProt P25694 1-835)
